# Experimental data taken from the supplement of paper PMC9015667.
# Structures can show the parent of a compound that is named as a salt. This is one part of the list. Repeats are few or missing, and single values can be far off.
# Tested on: M249R (matched melanoma line resistant to BRAF inhibitors)
# Assay: reduction in cell viability relative to untreated/vehicle; higher = more growth inhibition
# Settings: 200 nM; 72 h
row,Structure (SMILES),reduction in cell viability
1,C/C=C(/C)C(=O)O[C@H]1C(C)=C[C@]23C(=O)[C@@H](C=C(CO)[C@@H](O)[C@]12O)[C@H]1[C@@H](C[C@H]3C)C1(C)C [Ingenol mebutate],3.33%
2,CN(C)C(=O)C(CCN1CCC(O)(c2ccc(Cl)cc2)CC1)(c1ccccc1)c1ccccc1 [Loperamide],< 0%
3,O=C1c2cccc(O)c2C(=O)c2c(O)cc(CO)cc21 [Aloe-emodin],< 0%
4,CC1=C(/C=C/C(C)=C/C=C/C(C)=C/C(=O)O)C(C)(C)CCC1 [Tretinoin],< 0%
5,CC(C)[C@H](CO)Nc1nc(Nc2cccc(Cl)c2)c2ncn(C(C)C)c2n1 [Purvalanol A],< 0%
6,O=S(=O)(O)c1ccc2cc(N=Nc3cc(S(=O)(=O)O)c4cccnc4c3O)ccc2c1,< 0%

# Tested on: UACC62P (parental melanoma line)
# Assay: as above
# Settings: 200 nM; 72 h
row,Structure (SMILES),reduction in cell viability
1,CC[C@H](c1ccc(O)cc1)[C@@H](CC)c1ccc(O)cc1 [Hexestrol],4.8%
2,CN(c1nccc(=O)[nH]1)C1CCN(c2nc3ccccc3n2Cc2ccc(F)cc2)CC1 [Mizolastine],< 0%
3,COc1cc2nccc(Oc3ccc(NC(=O)Nc4cc(C)on4)c(Cl)c3)c2cc1OC [Tivozanib],< 0%
4,COc1cc2nc(N3CCN(C(=O)c4ccco4)CC3)nc(N)c2cc1OC [Prazosin hydrochloride],< 0%
5,CC(C)c1ccc(Cn2ccc3c4c(N)nc(NC5CC5)nc4ccc32)cc1,58.5%
6,COc1nccc(-c2c(-c3ccc(F)cc3)ncn2C2CCNCC2)n1,< 0%
7,COc1nc(C)cnc1NS(=O)(=O)c1cccnc1-c1ccc(-c2nnco2)cc1 [Zibotentan],< 0%
8,CCOC(=O)Nc1ccc(NCc2ccc(F)cc2)nc1N [Flupirtine maleate],< 0%
9,O=C(NCC1CCCCN1)c1cc(OCC(F)(F)F)ccc1OCC(F)(F)F (stereo unspecified) [Flecainide],< 0%
10,CC(C(=O)O)c1cccc(C(=O)c2ccccc2)c1 (stereo unspecified) [Ketoprofen],< 0%
11,CCc1cnn2c(NCc3ccc[n+]([O-])c3)cc(N3CCCC[C@H]3CCO)nc12,60.3%
12,"O=C(/C=C/c1cccnc1)NCCCCC1CCN(C(=O)c2ccccc2)CC1 [FK866 (APO866, Daporinad)]",9.82%
13,CC(C)NCC(O)COc1ccc(CCOCC2CC2)cc1 (stereo unspecified) [Betaxolol],4%
14,Cc1cc(C(C)Nc2ccccc2)c2nc(N3CCOCC3)cc(=O)n2c1 (stereo unspecified),6.6%
15,COc1cc([C@@H]2c3cc4c(cc3[C@@H](O[C@@H]3O[C@@H]5CO[C@@H](C)O[C@H]5[C@H](O)[C@H]3O)[C@H]3COC(=O)[C@H]23)OCO4)cc(OC)c1O [Etoposide],19.4%
16,NS(=O)(=O)OC[C@@H]1C[C@@H](n2ccc3c(N[C@H]4CCc5ccccc54)ncnc32)C[C@@H]1O,35.1%
17,OC(CCN1CCCCC1)(c1ccccc1)C1CC2C=CC1C2 (stereo unspecified) [Biperiden],< 0%
18,OC[C@H]1O[C@@H](n2cnc3c2N=CNC[C@H]3O)C[C@@H]1O [Pentostatin],< 0%
19,CC1(C)O[C@@H]2C[C@H]3[C@@H]4C[C@H](F)C5=CC(=O)C=C[C@]5(C)[C@H]4[C@@H](O)C[C@]3(C)[C@]2(C(=O)CO)O1 [Flunisolide],< 0%
20,COc1cc2ncnc(Nc3ccc(F)c(Cl)c3)c2cc1NC(=O)/C=C/CN1CCCCC1 [Dacomitinib],< 0%

row,Structure (SMILES),reduction in cell viability
1,COc1ccc(F)c(F)c1C(=O)c1cnc(NC2CCN(S(C)(=O)=O)CC2)nc1N,< 0%
2,CC(C)C[C@@H](N)[C@H](O)C(=O)N[C@H](C(=O)N[C@H](C(=O)N[C@@H](CC(=O)O)C(=O)O)C(C)C)C(C)C [Amastatin],< 0%
3,"Nc1cc(C(F)(F)F)c(-c2cc(N3CCOCC3)nc(N3CCOCC3)n2)cn1 [BKM120 (NVP-BKM120, Buparlisib)]",< 0%
4,C[C@H](CCC(=O)O)[C@H]1CC[C@H]2[C@@H]3[C@H](O)C[C@@H]4C[C@H](O)CC[C@]4(C)[C@H]3CC[C@]12C [Chenodeoxycholic acid],< 0%
5,CN(C)[C@@H]1C(O)=C(C(N)=O)C(=O)[C@@]2(O)C(O)=C3C(=O)c4c(O)cccc4[C@@](C)(O)[C@H]3C[C@@H]12 [Tetracycline hydrochloride],< 0%
6,Cc1cc(Nc2nc(N[C@@H](C)c3ccc(F)cc3)c(C#N)cc2F)n[nH]1,16.1%
7,CCN(CC)CCOc1ccc(Nc2ncc3cc(-c4c(Cl)cccc4Cl)c(=O)n(C)c3n2)cc1,51%
8,Cc1cc(C(C)(C)C)cc(C)c1CC1=NCCN1 [Xylometazoline hydrochloride],< 0%
9,CCn1cc(C(=O)O)c(=O)c2cc(F)c(N3CCNC(C)C3)c(F)c21 (stereo unspecified) [Lomefloxacin hydrochloride],< 0%
10,C[C@]12CCC3=C4CCC(=O)C=C4CC[C@H]3[C@@H]1CC[C@@]2(O)CC#N [Dienogest],< 0%
11,CN(C)CCCN1c2ccccc2CCc2ccc(Cl)cc21 [Clomipramine],< 0%
12,O=C(NCCCCN1CCOCC1)c1cc2ccccc2o1,< 0%
13,Cc1ccc(S(=O)(=O)Nc2cc(Cl)ccc2C(=O)Nc2nc(-c3ccccc3)cs2)cc1,< 0%
14,C[C@@H](Oc1cc(-c2cnn(C3CCNCC3)c2)cnc1N)c1c(Cl)ccc(F)c1Cl,10.5%
15,C/C=C(/C)C(=O)O[C@H]1C(C)=C[C@]23C(=O)[C@@H](C=C(CO)[C@@H](O)[C@]12O)[C@H]1[C@@H](C[C@H]3C)C1(C)C [Ingenol mebutate],< 0%
16,CN(C)C(=O)C(CCN1CCC(O)(c2ccc(Cl)cc2)CC1)(c1ccccc1)c1ccccc1 [Loperamide],< 0%
17,O=C1c2cccc(O)c2C(=O)c2c(O)cc(CO)cc21 [Aloe-emodin],2.32%
18,CC1=C(/C=C/C(C)=C/C=C/C(C)=C/C(=O)O)C(C)(C)CCC1 [Tretinoin],< 0%
19,CC(C)[C@H](CO)Nc1nc(Nc2cccc(Cl)c2)c2ncn(C(C)C)c2n1 [Purvalanol A],< 0%
20,O=S(=O)(O)c1ccc2cc(N=Nc3cc(S(=O)(=O)O)c4cccnc4c3O)ccc2c1,< 0%
